The source of these data is PubChem BioAssay AID200 (DTP/NCI, 2004).

The assay concerns B6C3F1 mice, B16 melanoma ip, median survival T/C. The assay is described as follows: NCI In Vivo Anticancer Drug Screen. Data for tumor model B16 Melanoma (intraperitoneal) in B6C3F1 mice. Conditions: T/C endpoint: median survival time, higher T/C = longer survival. In short, it runs like this: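 Readout: survival or tumor size in treated mice relative to vehicle controls (T/C). Model uses transplantable tumors grown in mice.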

The mark [1] stands for this setting: dose: 12.5 mg/kg/injection, schedule: Q01DX009 (ip), vehicle: saline with Tween-80.
Where [2] appears, read: dose: 400.0 mg/kg/injection, schedule: Q01DX009 (ip), vehicle: saline with Tween-80.
[3] abbreviates: dose: 100.0 mg/kg/injection, schedule: Q01DX009 (ip), vehicle: distilled water + Tween-80.
[4] abbreviates: dose: 50.0 mg/kg/injection, schedule: Q01DX009 (ip), vehicle: saline with Tween-80.
The mark [5] stands for this setting: dose: 100.0 mg/kg/injection, schedule: Q01DX009 (ip), vehicle: saline with Tween-80.
Where [6] appears, read: dose: 200.0 mg/kg/injection, schedule: Q01DX009 (ip), vehicle: saline with Tween-80.
Setting [7] is: dose: 50.0 mg/kg/injection, schedule: Q01DX009 (ip), vehicle: Klucel (hydroxypropylcellulose) (HPC).
[8] abbreviates: dose: 100.0 mg/kg/injection, schedule: Q01DX009 (ip), vehicle: Klucel (hydroxypropylcellulose) (HPC).

SMILES strings stand for the structures. The list shows only some results of the screen, not a fair sample: it gathers tests that were run many times, whatever their T/C, doses with no T/C, and many T/C values between a quarter and a half above the control. Other doses and runs of a compound stand elsewhere. T/C gives the treated animals as a percentage of the vehicle group. Some entries give survivors of the animals treated and no T/C: the source holds a T/C of zero for them, seemingly a mark for toxic or unscored doses. Some doses without a T/C left all or most animals alive at the check, yet need not have been tolerated: survival well below the control is almost never listed, so the zero probably covers shortened survival too. Survivors were counted at the toxicity check, usually on the fifth day, unless a day is given; later deaths do not show. Schedules are NCI's codes, read here as Q, the interval in days (D) or hours (H), X, the number of doses. Signs of the kind (2×) say how often a value occurs here. Some entries hold several experiments; the values are given in rising order. For survival time, the PubChem record calls one and a half times the control and up active, and a quarter to a half above the control has no call in these data; cut-offs in other NCI protocols can differ. Some T/C values carry the count of animals alive at the toxicity check (mostly the fifth day); where none is given, no animal had died by that day.

Regarding `N#Cc1ccc(NN=O)nc1`, the T/C is 130 % of control [9 of 10 alive] (dose: 6.25 mg/kg/injection, schedule: Q01DX009 (ip), vehicle: water); 129 % of control (dose: 12.5 mg/kg/injection, schedule: Q01DX009 (ip), vehicle: saline); 140 % of control (dose: 12.5 mg/kg/injection, schedule: Q01DX009 (ip), vehicle: water). Moreover, the survivor count is given as 10 of 10 (dose: 25.0 mg/kg/injection, schedule: Q01DX009 (ip), vehicle: water) and 10 of 10 (dose: 50.0 mg/kg/injection, schedule: Q01DX009 (ip), vehicle: water).

Regarding `O=C(NC1CCCCC1)OCc1c(COC(=O)NC2CCCCC2)c(-c2ccc(Cl)c(Cl)c2)n2c1CCC2`, the T/C under setting [1] is 135 % of control. The survivor count under setting [2] is listed as 10 of 10.

Take `CC(C)NC(=O)OCc1c(COC(=O)NC(C)C)c(-c2ccc(Cl)c(Cl)c2)n2c1CCC2`: the T/C is 126 % of control (dose: 2.5 mg/kg/injection, schedule: Q01DX009 (ip), vehicle: Klucel (hydroxypropylcellulose) (HPC)); 134 % of control (dose: 5.0 mg/kg/injection, schedule: Q01DX009 (ip), vehicle: Klucel (hydroxypropylcellulose) (HPC)); 186, 201, 222, 223 % of control (dose: 12.5 mg/kg/injection, schedule: Q01DX009 (ip), vehicle: distilled water + Tween-80); 193, 241, 267, 310 % of control (dose: 25.0 mg/kg/injection, schedule: Q01DX009 (ip), vehicle: distilled water + Tween-80); 126, 146, 210, 287 % of control (dose: 50.0 mg/kg/injection, schedule: Q01DX009 (ip), vehicle: distilled water + Tween-80); 103, 111, 112 % of control under setting [3]. The survivor count by setting is: under setting [3], 10 of 10; (dose: 200.0 mg/kg/injection, schedule: Q01DX009 (ip), vehicle: distilled water + Tween-80) 9 of 10 and 10 of 10.

Turning to `CCN(CC)CCCNc1nccc2c(C)c3[nH]c4ccncc4c3cc12`, the survivor count (dose: 12.0 mg/kg/injection, schedule: Q01DX009 (ip), vehicle: other) was 8 of 10.

Take `COC(=O)Nc1cn2ccc(C(Cl)=C(Cl)Cl)cc2n1`: the survivor count (dose: 200.0 mg/kg/injection, schedule: Q01DX009 (ip), vehicle: Klucel (hydroxypropylcellulose) (HPC)) is 8 of 8.

As to `CCOC(=O)Nc1cc2c(c(N)n1)N=C(c1ccc(Cl)cc1Cl)CN2`, the T/C was 127 % of control (dose: 3.0 mg/kg/injection, schedule: Q01DX009 (ip), vehicle: saline with Tween-80); 125 % of control (dose: 3.12 mg/kg/injection, schedule: Q01DX009 (ip), vehicle: saline with Tween-80); 125 % of control (dose: 6.0 mg/kg/injection, schedule: Q01DX009 (ip), vehicle: saline with Tween-80); 148 % of control (dose: 6.25 mg/kg/injection, schedule: Q01DX009 (ip), vehicle: saline with Tween-80); 126 and 139 % of control (dose: 12.0 mg/kg/injection, schedule: Q01DX009 (ip), vehicle: saline with Tween-80). In addition, the survivor count is 10 of 10 (dose: 24.0 mg/kg/injection, schedule: Q01DX009 (ip), vehicle: saline with Tween-80); 8 of 10 (dose: 25.0 mg/kg/injection, schedule: Q01DX009 (ip), vehicle: saline with Tween-80); 2 of 10 under setting [4].

On to `NCC(O)c1ccc(O)c(O)c1` (centres undefined), for which the T/C by setting is: (dose: 0.75 mg/kg/injection, schedule: Q01DX009 (ip), vehicle: suspension in saline) 125 % of control; (dose: 1.5 mg/kg/injection, schedule: Q01DX009 (ip), vehicle: suspension in saline) 134 % of control [9 of 10 alive].

For the molecule `Cc1ccc(S(=O)(=O)NC(=S)S)cc1`, the survivor count under setting [2] is given as 10 of 10.

For `Nc1ccc2ccc(N)cc2c1`, the survivor count under setting [2] is reported as 6 of 10.

Regarding `Cc1cc2c(cc1C)C(=O)c1c(O)c3c(c(O)c1C2=O)C[C@@](O)(C(=O)CO)C[C@@H]3OC1CC(N)C(O)C(C)O1` (some centres undefined), where the note is “dose: 1.25 mg/kg/injection, schedule: Q01DX001 (ip), vehicle: water”, the T/C was 145 % of control. For the same molecule, the survivor count runs as follows: (dose: 40.0 mg/kg/injection, schedule: Q01DX001 (ip), vehicle: water) 3 of 10 and 4 of 10; (dose: 80.0 mg/kg/injection, schedule: Q01DX001 (ip), vehicle: water) 0 of 10.

Take `O=C1NC(O)c2ccccc2O1` (centres undefined): the survivor count under setting [2] is 9 of 10.

As to `CNC(=O)Oc1ccc(S(=O)(=O)c2ccc(OC(=O)NC)cc2)cc1`, the survivor count is 10 of 10 under setting [1], 10 of 10 under setting [5] and 9 of 10 under setting [6].

With `CCN(CC)Cc1cc2[nH]c3c4ccc(Cl)cc4ncc3c2cc1OC`, under setting [5], the survivor count is 1 of 10 and 4 of 10.

On to `[N-]=[N+]=C1N=CN=C1c1ncn[nH]1`, for which the T/C (dose: 25.0 mg/kg/injection, schedule: Q01DX009 (ip), vehicle: Klucel (hydroxypropylcellulose) (HPC)) is 146 % of control and the T/C under setting [7] was 134 % of control. Under setting [8], the survivor count was 6 of 10.

For the molecule `CCOC(=O)C(C)(C)Oc1ccc(Cl)cc1`, the survivor count was 10 of 10 under setting [6]; 7 of 10 and 9 of 10 under setting [2].

For `c1ccc(OCC2CO2)c(OCC2CO2)c1` (centres undefined), the T/C was 140 % of control under setting [4], 145 % of control under setting [5] and 128 % of control [9 of 10 alive] under setting [6]. Besides, the survivor count is 7 of 10 under setting [6] and 4 of 10 under setting [2].

On to `CN(C)N=Nc1ccc(C(N)=O)cc1`, for which the T/C (dose: 7.5 mg/kg/injection, schedule: Q01DX009 (ip), vehicle: saline with Tween-80) was 125 % of control. In addition, the survivor count (dose: 161.0 mg/kg/injection, schedule: Q01DX009 (ip), vehicle: saline with Tween-80) is on record as 10 of 10.

Take `O=Cc1ccccc1`: the survivor count is, setting by setting: (dose: 50.0 mg/kg/injection, schedule: Q01DX009 (oral), vehicle: Klucel (hydroxypropylcellulose) (HPC)) 10 of 10; under setting [8], 10 of 10; (dose: 100.0 mg/kg/injection, schedule: Q01DX009 (oral), vehicle: Klucel (hydroxypropylcellulose) (HPC)) 10 of 10; (dose: 200.0 mg/kg/injection, schedule: Q01DX009 (oral), vehicle: Klucel (hydroxypropylcellulose) (HPC)) 7 of 10; under setting [2], 10 of 10; (dose: 400.0 mg/kg/injection, schedule: Q01DX009 (oral), vehicle: Klucel (hydroxypropylcellulose) (HPC)) 9 of 10. Also, the survivor count was 0 of 10 (dose: 800.0 mg/kg/injection, schedule: Q01DX009 (ip), vehicle: Klucel (hydroxypropylcellulose) (HPC)); 7 of 10 and 8 of 10 (dose: 800.0 mg/kg/injection, schedule: Q01DX009 (oral), vehicle: Klucel (hydroxypropylcellulose) (HPC)); 0 of 10 and 1 of 10 (dose: 1600.0 mg/kg/injection, schedule: Q01DX009 (oral), vehicle: Klucel (hydroxypropylcellulose) (HPC)); 0 of 10 (dose: 3200.0 mg/kg/injection, schedule: Q01DX009 (oral), vehicle: Klucel (hydroxypropylcellulose) (HPC)).

For the molecule `Oc1ccc(OCc2ccccc2)cc1`, the survivor count is 10 of 10 (2×) under setting [7] and 10 of 10 under setting [8].

On to `NC(=O)C1=CC2C3C=CC2(O)C(=O)OC3O1` (centres undefined), for which the survivor count is recorded as 10 of 10 (dose: 30.0 mg/kg/injection, schedule: Q01DX009 (ip), vehicle: Klucel (hydroxypropylcellulose) (HPC)) and 0 of 10 (dose: 60.0 mg/kg/injection, schedule: Q01DX009 (ip), vehicle: Klucel (hydroxypropylcellulose) (HPC)).

For the molecule `N=C(N)SCc1c2ccccc2c(CSC(=N)N)c2ccccc12`, the T/C (dose: 3.12 mg/kg/injection, schedule: Q01DX009 (ip), vehicle: saline) was 144 % of control.

In the case of `Oc1ccc2ccccc2c1N=Nc1ccc(Cl)cc1`, the survivor count under setting [2] is reported as 10 of 10.

Turning to `OC1COC(c2ccccc2)OC1C1OC(c2ccccc2)OC2COC(c3ccccc3)OC21` (centres undefined), the survivor count is 10 of 10 under setting [4], 10 of 10 under setting [5] and 10 of 10 under setting [6].

For `Cc1ccccc1N(CC1CO1)CC1CO1` (centres undefined), the survivor count (dose: 400.0 mg/kg/injection, schedule: Q01DX009 (ip), vehicle: saline) is reported as 3 of 10.
